Laboratory results from paper PMC8861016.
These are yes or no findings as the source states them, for the method shown. In cells and extracts the contact can be indirect. Some entries that bind do so weakly or less than the wild type.

By UniProt entry, the sequences of proteins in these tests, tags left out. Residues count along the entry.
UniProt O75581, residues 20-1613: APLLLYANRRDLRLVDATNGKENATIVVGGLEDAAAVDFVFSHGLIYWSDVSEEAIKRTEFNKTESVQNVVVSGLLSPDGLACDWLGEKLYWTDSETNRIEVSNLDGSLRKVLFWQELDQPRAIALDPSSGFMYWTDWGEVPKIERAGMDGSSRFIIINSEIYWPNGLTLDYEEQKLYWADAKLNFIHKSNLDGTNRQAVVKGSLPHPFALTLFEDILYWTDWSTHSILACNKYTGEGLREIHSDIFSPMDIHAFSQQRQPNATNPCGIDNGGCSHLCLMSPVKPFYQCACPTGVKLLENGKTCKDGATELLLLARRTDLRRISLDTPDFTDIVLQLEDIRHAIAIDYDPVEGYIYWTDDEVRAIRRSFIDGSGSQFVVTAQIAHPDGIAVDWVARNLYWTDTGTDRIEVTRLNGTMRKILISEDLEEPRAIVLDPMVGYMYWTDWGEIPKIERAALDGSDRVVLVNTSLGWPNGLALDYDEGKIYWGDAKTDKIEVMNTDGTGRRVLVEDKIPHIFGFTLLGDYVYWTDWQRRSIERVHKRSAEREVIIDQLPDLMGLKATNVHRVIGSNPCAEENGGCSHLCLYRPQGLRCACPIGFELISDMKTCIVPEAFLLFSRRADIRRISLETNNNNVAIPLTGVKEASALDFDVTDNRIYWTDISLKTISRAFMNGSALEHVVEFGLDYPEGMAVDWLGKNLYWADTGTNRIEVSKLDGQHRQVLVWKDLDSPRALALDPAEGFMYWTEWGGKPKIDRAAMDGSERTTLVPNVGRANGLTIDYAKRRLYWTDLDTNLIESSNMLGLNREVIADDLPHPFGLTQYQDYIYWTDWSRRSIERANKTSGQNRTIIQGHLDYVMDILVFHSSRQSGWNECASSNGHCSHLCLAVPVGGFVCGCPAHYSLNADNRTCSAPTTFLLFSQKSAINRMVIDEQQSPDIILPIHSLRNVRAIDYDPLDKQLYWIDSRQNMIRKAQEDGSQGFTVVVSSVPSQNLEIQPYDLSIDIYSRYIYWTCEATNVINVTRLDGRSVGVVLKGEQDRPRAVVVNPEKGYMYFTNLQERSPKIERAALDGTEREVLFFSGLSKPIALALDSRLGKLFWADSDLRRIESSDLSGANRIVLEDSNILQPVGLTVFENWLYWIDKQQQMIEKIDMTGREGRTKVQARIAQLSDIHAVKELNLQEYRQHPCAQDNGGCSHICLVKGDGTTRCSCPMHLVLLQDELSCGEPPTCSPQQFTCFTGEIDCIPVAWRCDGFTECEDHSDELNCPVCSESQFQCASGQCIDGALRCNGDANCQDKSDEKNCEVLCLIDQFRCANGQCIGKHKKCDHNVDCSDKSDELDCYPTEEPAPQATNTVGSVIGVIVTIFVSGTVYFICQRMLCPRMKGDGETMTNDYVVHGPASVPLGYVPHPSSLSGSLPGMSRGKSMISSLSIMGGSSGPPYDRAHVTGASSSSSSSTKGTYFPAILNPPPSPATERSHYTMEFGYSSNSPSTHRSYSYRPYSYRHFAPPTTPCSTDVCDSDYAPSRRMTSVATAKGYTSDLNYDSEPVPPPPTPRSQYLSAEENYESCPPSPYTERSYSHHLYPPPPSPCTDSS
UniProt P16070, residues 21-742: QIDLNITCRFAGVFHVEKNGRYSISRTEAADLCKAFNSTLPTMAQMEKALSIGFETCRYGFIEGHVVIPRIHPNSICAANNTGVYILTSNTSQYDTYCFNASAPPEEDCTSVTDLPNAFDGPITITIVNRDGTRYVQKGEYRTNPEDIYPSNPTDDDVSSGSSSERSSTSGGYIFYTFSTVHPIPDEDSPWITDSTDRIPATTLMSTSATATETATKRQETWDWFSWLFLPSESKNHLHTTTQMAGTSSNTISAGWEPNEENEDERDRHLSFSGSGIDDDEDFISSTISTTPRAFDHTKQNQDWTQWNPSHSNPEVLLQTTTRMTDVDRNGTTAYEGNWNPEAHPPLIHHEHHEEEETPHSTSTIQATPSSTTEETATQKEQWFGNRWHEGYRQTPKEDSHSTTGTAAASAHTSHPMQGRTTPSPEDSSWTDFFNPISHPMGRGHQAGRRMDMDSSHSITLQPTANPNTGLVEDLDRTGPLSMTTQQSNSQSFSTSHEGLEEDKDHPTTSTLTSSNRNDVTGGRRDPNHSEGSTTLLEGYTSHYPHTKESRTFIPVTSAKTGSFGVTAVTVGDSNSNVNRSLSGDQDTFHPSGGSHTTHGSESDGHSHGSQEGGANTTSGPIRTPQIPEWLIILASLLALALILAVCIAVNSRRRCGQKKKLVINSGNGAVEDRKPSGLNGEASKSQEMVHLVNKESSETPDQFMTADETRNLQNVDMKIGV

Target: LRP6 (human (endogenous in HeLa)) (UniProt O75581)
Assay: proximity ligation; in situ Duolink PLA on fixed, permeabilised HeLa cells, endogenous proteins; primary antibodies against CD44-ICD and LRP6, DVL2 or AXIN; cells treated with Wnt3a CM for 15 and 45 min, compared to control CM

binding: binds
Substance: CD44 (from UniProt P16070 21-742) (receptor)
